# Results published in the supplement of paper PMC10849652.
# By UniProt entry, the sequences of proteins in these tests, tags left out. Where a name states a change or a piece, a line headed by the entry shows the natural chain unless it says otherwise.
# UniProt P49841: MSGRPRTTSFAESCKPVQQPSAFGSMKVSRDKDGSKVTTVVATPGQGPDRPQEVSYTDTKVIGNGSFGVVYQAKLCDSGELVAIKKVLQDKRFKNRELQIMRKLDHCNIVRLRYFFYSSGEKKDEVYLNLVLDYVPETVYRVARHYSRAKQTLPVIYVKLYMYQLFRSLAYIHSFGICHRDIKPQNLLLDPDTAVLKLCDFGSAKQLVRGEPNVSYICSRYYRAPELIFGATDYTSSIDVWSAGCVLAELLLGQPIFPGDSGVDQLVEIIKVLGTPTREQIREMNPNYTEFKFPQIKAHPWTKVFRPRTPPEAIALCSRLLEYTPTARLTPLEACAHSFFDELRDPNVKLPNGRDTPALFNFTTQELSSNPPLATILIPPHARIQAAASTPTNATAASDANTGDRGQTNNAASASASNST
# UniProt Q16836: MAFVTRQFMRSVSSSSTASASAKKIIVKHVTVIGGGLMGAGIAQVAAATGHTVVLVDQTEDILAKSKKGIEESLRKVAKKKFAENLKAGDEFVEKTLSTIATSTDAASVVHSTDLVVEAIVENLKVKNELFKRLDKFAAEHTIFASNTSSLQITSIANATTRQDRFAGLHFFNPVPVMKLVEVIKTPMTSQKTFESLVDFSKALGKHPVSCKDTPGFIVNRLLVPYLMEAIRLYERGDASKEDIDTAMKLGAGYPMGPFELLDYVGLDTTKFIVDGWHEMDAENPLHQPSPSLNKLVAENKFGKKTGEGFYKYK
# UniProt Q9Y450, whole entry, looked up: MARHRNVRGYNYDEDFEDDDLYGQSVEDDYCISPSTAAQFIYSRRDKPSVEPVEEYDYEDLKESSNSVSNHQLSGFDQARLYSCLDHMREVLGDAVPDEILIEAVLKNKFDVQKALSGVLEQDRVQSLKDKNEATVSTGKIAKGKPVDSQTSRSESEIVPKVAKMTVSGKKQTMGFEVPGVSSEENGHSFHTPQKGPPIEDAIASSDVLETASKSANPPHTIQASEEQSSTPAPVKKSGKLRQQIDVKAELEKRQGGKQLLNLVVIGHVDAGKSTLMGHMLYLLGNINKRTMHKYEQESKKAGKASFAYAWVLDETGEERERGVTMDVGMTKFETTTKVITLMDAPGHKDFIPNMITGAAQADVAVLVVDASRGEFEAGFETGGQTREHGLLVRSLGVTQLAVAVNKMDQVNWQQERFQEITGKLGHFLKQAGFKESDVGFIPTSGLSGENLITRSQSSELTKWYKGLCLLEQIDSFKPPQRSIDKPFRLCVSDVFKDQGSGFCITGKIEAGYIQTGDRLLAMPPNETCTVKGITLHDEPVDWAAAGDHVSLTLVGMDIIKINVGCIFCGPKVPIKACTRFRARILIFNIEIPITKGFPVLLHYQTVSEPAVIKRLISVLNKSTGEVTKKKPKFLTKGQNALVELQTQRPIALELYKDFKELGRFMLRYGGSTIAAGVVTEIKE
# UniProt Q9BXW7: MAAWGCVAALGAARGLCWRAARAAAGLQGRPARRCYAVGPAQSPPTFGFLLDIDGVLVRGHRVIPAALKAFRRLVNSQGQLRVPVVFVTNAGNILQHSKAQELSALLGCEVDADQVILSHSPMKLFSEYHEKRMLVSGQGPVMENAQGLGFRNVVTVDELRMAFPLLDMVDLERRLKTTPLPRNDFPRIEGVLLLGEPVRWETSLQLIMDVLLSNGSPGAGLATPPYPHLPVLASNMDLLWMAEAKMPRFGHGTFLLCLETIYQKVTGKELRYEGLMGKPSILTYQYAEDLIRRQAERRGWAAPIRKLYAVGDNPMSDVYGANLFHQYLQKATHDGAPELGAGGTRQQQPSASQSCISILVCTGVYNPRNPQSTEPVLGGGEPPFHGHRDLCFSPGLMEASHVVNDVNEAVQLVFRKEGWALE
# UniProt Q9NYZ3: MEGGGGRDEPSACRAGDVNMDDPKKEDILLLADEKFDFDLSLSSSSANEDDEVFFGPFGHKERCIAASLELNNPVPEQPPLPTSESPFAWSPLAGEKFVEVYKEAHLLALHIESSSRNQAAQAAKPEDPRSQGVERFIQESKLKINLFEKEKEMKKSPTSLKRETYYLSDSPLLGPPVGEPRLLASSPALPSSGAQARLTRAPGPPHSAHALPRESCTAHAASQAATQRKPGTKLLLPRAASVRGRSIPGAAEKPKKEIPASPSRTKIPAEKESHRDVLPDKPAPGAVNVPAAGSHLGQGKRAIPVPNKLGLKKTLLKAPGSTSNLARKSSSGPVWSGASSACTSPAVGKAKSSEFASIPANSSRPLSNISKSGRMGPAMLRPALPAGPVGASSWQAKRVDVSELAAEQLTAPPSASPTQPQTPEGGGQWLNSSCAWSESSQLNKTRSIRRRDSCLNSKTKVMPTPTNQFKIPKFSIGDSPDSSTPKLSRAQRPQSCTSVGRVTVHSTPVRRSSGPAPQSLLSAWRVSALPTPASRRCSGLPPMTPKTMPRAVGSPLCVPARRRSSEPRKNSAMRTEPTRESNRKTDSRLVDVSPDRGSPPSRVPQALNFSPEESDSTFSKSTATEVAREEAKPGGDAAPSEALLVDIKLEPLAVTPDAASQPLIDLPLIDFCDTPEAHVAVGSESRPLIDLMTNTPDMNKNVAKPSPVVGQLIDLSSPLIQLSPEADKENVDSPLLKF
# UniProt Q4V328: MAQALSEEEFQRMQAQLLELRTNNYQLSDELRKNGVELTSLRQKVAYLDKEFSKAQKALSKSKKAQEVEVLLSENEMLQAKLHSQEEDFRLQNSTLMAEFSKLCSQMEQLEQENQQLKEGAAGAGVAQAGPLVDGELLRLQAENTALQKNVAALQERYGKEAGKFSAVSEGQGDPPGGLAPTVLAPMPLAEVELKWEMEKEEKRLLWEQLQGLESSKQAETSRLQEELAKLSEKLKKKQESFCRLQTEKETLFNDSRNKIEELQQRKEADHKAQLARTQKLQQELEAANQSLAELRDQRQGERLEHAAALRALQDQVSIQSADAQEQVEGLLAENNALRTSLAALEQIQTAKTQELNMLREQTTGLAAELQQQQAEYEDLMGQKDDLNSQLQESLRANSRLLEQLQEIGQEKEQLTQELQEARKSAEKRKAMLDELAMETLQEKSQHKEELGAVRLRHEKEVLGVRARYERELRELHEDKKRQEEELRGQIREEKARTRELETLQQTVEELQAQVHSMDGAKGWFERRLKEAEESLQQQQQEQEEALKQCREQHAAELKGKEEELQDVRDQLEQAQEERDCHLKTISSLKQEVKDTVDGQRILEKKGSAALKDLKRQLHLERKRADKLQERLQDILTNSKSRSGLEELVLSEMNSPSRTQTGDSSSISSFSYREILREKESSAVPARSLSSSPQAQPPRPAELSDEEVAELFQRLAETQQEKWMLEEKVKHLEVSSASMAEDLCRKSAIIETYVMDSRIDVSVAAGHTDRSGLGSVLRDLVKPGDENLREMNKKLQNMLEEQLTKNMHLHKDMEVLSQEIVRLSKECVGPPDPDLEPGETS
# UniProt P02100: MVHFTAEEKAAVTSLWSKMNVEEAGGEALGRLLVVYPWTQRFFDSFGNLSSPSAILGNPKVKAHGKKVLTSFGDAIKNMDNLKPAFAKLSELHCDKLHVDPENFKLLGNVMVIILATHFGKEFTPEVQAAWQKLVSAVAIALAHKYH
# UniProt O15379: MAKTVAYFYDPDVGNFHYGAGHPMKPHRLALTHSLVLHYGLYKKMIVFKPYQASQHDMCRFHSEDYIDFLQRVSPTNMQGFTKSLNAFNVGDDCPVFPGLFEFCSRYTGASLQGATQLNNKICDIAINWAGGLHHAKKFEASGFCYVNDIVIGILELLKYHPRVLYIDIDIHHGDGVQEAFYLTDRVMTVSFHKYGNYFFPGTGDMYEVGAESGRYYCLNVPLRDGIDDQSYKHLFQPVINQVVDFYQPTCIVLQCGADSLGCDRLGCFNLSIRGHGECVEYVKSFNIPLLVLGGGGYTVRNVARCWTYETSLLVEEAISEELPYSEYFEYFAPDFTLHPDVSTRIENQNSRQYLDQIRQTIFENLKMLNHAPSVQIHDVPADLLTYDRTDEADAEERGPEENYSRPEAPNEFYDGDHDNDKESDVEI
# This is one part of the list.
# Experiments:
# Experiment in all cases: log2 fold change, soluble protein after heating vs DMSO (PISA); higher = thermal stabilisation; K562 lysate, 10 uM; active = over 0.2 and 3.5 SD of the protein, either way, in both replicates (recomputed)
# lapatinib = compound: CS(=O)(=O)CCNCc1ccc(-c2ccc3ncnc(Nc4ccc(OCc5cccc(F)c5)c(Cl)c4)c3c2)o1 [lapatinib]
# Procedure, shortened: (§1)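 Quantification was by TMTpro 16plex LC-MS/MS with equalised channel sums, applied to the supernatant after 21,000xg for 90 min. Samples were crude K562 extract at 1 mg/mL protein in PBS pH 7.4 with 1 mM MgCl2, treated with 10 μM compound for 30 min, heated for 3 min across 48°C-58°C, pooled and brought to 0.5% NP-40 at 4°C. Values are log-two fold changes in thermal stability relative to solvent controls, from duplicates.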
# pictilisib = compound: CS(=O)(=O)N1CCN(Cc2cc3nc(-c4cccc5[nH]ncc45)nc(N4CCOCC4)c3s2)CC1 [pictilisib]
# Procedure, shortened: as §1
# crizotinib = compound: C[C@@H](Oc1cc(-c2cnn(C3CCNCC3)c2)cnc1N)c1c(Cl)ccc(F)c1Cl [crizotinib]
# Procedure, shortened: as §1
# [1] = compound: C[C@H](C1=CC=C(C=C1)C(=O)NC2=C3C=CNC3=NC=C2)N
# Procedure, shortened: as §1
# duvelisib = compound: C[C@H](Nc1ncnc2nc[nH]c12)c1cc2cccc(Cl)c2c(=O)n1-c1ccccc1 [duvelisib]
# Procedure, shortened: as §1
# gandotinib = compound: Cc1cc(Nc2cc(CN3CCOCC3)c3nc(C)c(Cc4ccc(Cl)cc4F)n3n2)n[nH]1 [gandotinib]
# Procedure, shortened: as §1
# tozasertib = compound: Cc1cc(Nc2cc(N3CCN(C)CC3)nc(Sc3ccc(NC(=O)C4CC4)cc3)n2)n[nH]1 [tozasertib]
# Procedure, shortened: as §1
# doramapimod = compound: Cc1ccc(-n2nc(C(C)(C)C)cc2NC(=O)Nc2ccc(OCCN3CCOCC3)c3ccccc23)cc1 [doramapimod]
# Procedure, shortened: as §1
# bafetinib = compound: Cc1ccc(NC(=O)c2ccc(CN3CC[C@H](N(C)C)C3)c(C(F)(F)F)c2)cc1Nc1nccc(-c2cncnc2)n1 [bafetinib]
# Procedure, shortened: as §1
# [2] = compound: Cc1cccc(CC(=O)N2CCc3c2ccc(-c2cn(C)c4ncnc(N)c24)c3F)n1
# Procedure, shortened: as §1
# nilotinib = compound: Cc1cn(-c2cc(NC(=O)c3ccc(C)c(Nc4nccc(-c5cccnc5)n4)c3)cc(C(F)(F)F)c2)cn1 [nilotinib]
# Procedure, shortened: as §1
# [3] = compound: Cc1nc(Nc2n[nH]c3c2CN(C(=O)N[C@H](CN(C)C)c2ccccc2)C3(C)C)c2sccc2n1
# Procedure, shortened: as §1
# dasatinib = compound: Cc1nc(Nc2ncc(C(=O)Nc3c(C)cccc3Cl)s2)cc(N2CCN(CCO)CC2)n1 [dasatinib]
# Procedure, shortened: as §1
# [4] = compound: Cc1ncc(-c2ccnc(Nc3ccc(S(C)(=O)=O)cc3)n2)n1C(C)C
# Procedure, shortened: as §1
# [5] = compound: Cn1cc(-c2ccc3c(c2)CCN3C(=O)Cc2cccc(C(F)(F)F)c2)c2c(N)ncnc21
# Procedure, shortened: as §1
# quisinostat = compound: Cn1cc(CNCC2CCN(c3ncc(C(=O)NO)cn3)CC2)c2ccccc21 [quisinostat]
# Procedure, shortened: as §1
# tipifarnib = compound: Cn1cncc1[C@@](N)(c1ccc(Cl)cc1)c1ccc2c(c1)c(-c1cccc(Cl)c1)cc(=O)n2C [tipifarnib]
# Procedure, shortened: as §1
# [6] = compound: NC(=O)Nc1cc(-c2cccc(F)c2)sc1C(=O)N[C@H]1CCCNC1
# Procedure, shortened: as §1
# [7] = compound: NC(=O)c1cnc(N[C@@H]2CCCC[C@@H]2N)nc1Nc1cccc(-n2nccn2)c1
# Procedure, shortened: as §1
# [8] = compound: NC1(c2ccc(-c3nc4ccn5c(=O)[nH]nc5c4cc3-c3ccccc3)cc2)CCC1
# Procedure, shortened: as §1
Target,log2 fold change (lapatinib),log2 fold change (pictilisib),log2 fold change (crizotinib),log2 fold change [1],log2 fold change (duvelisib),log2 fold change (gandotinib),log2 fold change (tozasertib),log2 fold change (doramapimod),log2 fold change (bafetinib),log2 fold change [2],log2 fold change (nilotinib),log2 fold change [3],log2 fold change (dasatinib),log2 fold change [4],log2 fold change [5],log2 fold change (quisinostat),log2 fold change (tipifarnib),log2 fold change [6],log2 fold change [7],log2 fold change [8]
GSK3B isoform 2 (UniProt P49841),inactive: -0.083,inactive: 0.191,inactive: 0.003,inactive: 0.018,inactive: -0.02,inactive: 0.59,inactive: -0.078,inactive: 0.03,inactive: -0.041,inactive: -0.06,inactive: -0.06,inactive: 0.576,inactive: -0.023,active: 0.64,inactive: -0.028,inactive: -0.084,inactive: 0.003,inactive: 0,inactive: 0.061,inactive: -0.039
HADH isoform 2 (UniProt Q16836),inactive: -0.011,inactive: 0.04,inactive: 0.031,inactive: 0.057,inactive: -0.044,inactive: -0.05,inactive: 0.053,inactive: -0.055,inactive: 0.045,inactive: -0.055,inactive: -0.028,inactive: 0.049,active: 0.288,inactive: 0.031,inactive: 0.008,inactive: 0.124,inactive: 0.032,inactive: -0.006,inactive: 0.029,inactive: -0.031
HBS1L (UniProt Q9Y450),inactive: 0.009,inactive: 0.001,inactive: -0.048,inactive: 0.037,inactive: 0.006,inactive: -0.062,inactive: 0.018,inactive: 0.029,inactive: -0.044,inactive: 0.01,inactive: 0.019,inactive: -0.005,inactive: 0.012,inactive: -0.024,inactive: 0.003,inactive: -0.108,inactive: -0.012,inactive: 0.068,inactive: -0.006,inactive: -0.038
HDHD5 (UniProt Q9BXW7),inactive: 0.011,inactive: 0.012,inactive: -0.017,inactive: -0.147,inactive: 0.058,inactive: -0.005,inactive: 0.059,inactive: 0.131,inactive: 0.033,inactive: 0.116,inactive: 0.157,inactive: -0.081,inactive: 0.023,inactive: -0.052,inactive: -0.042,inactive: -0.026,inactive: -0.008,inactive: 0.028,inactive: -0.014,inactive: -0.036
GTSE1 (UniProt Q9NYZ3),inactive: -0.072,inactive: -0.053,inactive: 0.061,inactive: -0.115,inactive: 0.08,inactive: 0.082,inactive: 0.036,inactive: -0.035,inactive: -0.093,inactive: -0.004,inactive: 0.027,inactive: 0.014,inactive: 0.01,inactive: 0.042,inactive: -0.083,inactive: -0.05,inactive: -0.051,inactive: 0.051,inactive: -0.152,inactive: 0.103
GRIPAP1 (UniProt Q4V328),inactive: 0.033,inactive: -0.008,inactive: 0.025,inactive: 0.094,inactive: 0.019,inactive: -0.013,inactive: -0.044,inactive: -0.003,inactive: -0.014,inactive: -0.07,inactive: -0.025,inactive: -0.001,inactive: 0.016,inactive: 0.018,inactive: 0.001,inactive: -0.012,inactive: -0.011,inactive: -0.011,inactive: -0.022,inactive: 0.005
HBE1 (UniProt P02100),inactive: 0.035,inactive: -0.016,inactive: 0.032,inactive: 0.028,inactive: -0.005,inactive: 0,inactive: -0.002,inactive: 0,inactive: -0.016,inactive: -0.044,inactive: 0.035,inactive: -0.015,inactive: 0.04,inactive: 0.012,inactive: -0.038,inactive: 0.061,inactive: 0.023,inactive: -0.041,inactive: -0.029,inactive: 0.002
HDAC3 (UniProt O15379),inactive: 0.02,inactive: 0.008,inactive: 0.015,inactive: 0.076,inactive: -0.067,inactive: -0.015,inactive: 0.054,inactive: -0.024,inactive: -0.005,inactive: -0.045,inactive: -0.079,inactive: -0.019,inactive: 0.04,inactive: -0.026,inactive: 0.007,inactive: -0.004,inactive: -0.102,inactive: 0.038,inactive: -0.004,inactive: -0.049

# Given with tabs: part of the list above.
Target	log2 fold change (lapatinib)	log2 fold change (pictilisib)	log2 fold change (crizotinib)	log2 fold change [1]	log2 fold change (duvelisib)	log2 fold change (gandotinib)	log2 fold change (tozasertib)	log2 fold change (doramapimod)	log2 fold change (bafetinib)	log2 fold change [2]	log2 fold change (nilotinib)	log2 fold change [3]	log2 fold change (dasatinib)	log2 fold change [4]	log2 fold change [5]	log2 fold change (quisinostat)	log2 fold change (tipifarnib)	log2 fold change [6]	log2 fold change [7]	log2 fold change [8]
GSK3B isoform 2 (UniProt P49841)	inactive: -0.083	inactive: 0.191	inactive: 0.003	inactive: 0.018	inactive: -0.02	inactive: 0.59	inactive: -0.078	inactive: 0.03	inactive: -0.041	inactive: -0.06	inactive: -0.06	inactive: 0.576	inactive: -0.023	active: 0.64	inactive: -0.028	inactive: -0.084	inactive: 0.003	inactive: 0	inactive: 0.061	inactive: -0.039
HADH isoform 2 (UniProt Q16836)	inactive: -0.011	inactive: 0.04	inactive: 0.031	inactive: 0.057	inactive: -0.044	inactive: -0.05	inactive: 0.053	inactive: -0.055	inactive: 0.045	inactive: -0.055	inactive: -0.028	inactive: 0.049	active: 0.288	inactive: 0.031	inactive: 0.008	inactive: 0.124	inactive: 0.032	inactive: -0.006	inactive: 0.029	inactive: -0.031
